Measurements as given in patent US12535491B2, “Vaccine comprising protein-targeted (PT) extracellular DNA isolated from bacterial matrix” (priority 2018, dated 2026).

B1: ITIH1_HUMAN (protein, UniProt P19827 35-672, looked up)
Inter-alpha-trypsin inhibitor …: SKSSEKRQAVDTAVDGVFIRSLKVNCKVTSRFAHYVVTSQVVNTANEAREVAFDLEIPKTAFISDFAVTADGNAFIGDIKDKVTAWKQYRKAAISGENAGLVRASGRTMEQFTIHLTVNPQSKVTFQLTYEEVLKRNHMQYEIVIKVKPKQLVHHFEIDVDIFEPQGISKLDAQASFLPKELAAQTIKKSFSGKKGHVLFRPTVSQQQSCPTCSTSLLNGHFKVTYDVSRDKICDLLVANNHFAHFFAPQNLTNMNKNVVFVIDISGSMRGQKVKQTKEALLKILGDMQPGDYFDLVLFGTRVQSWKGSLVQASEANLQAAQDFVRGFSLDEATNLNGGLLRGIEILNQVQESLPELSNHASILIMLTDGDPTEGVTDRSQILKNVRNAIRGRFPLYNLGFGHNVDFNFLEVMSMENNGRAQRIYEDHDATQQLQGFYSQVAKPLLVDVDLQYPQDAVLALTQNHHKQYYEGSEIVVAGRIADNKQSSFKADVQAHGEGQEFSITCLVDEEEMKKLLRERGHMLENHVERLWAYLTIQELLAKRMKVDREERANLSSQALQMSLDYGFVTPLTSMSIRGMADQDGLKPTIDKPSEDSPPLEMLGPRRTFVLSALQPSPTHSSSNTQRLPDRVTGVDTD
B2: VTDB_HUMAN (protein, UniProt P02774 17-474, looked up)
Vitamin D-binding protein: LERGRDYEKNKVCKEFSHLGKEDFTSLSLVLYSRKFPSGTFEQVSQLVKEVVSLTEACCAEGADPDCYDTRTSALSAKSCESNSPFPVHPGTAECCTKEGLERKLCMAALKHQPQEFPTYVEPTNDEICEAFRKDPKEYANQFMWEYSTNYGQAPLSLLVSYTKSYLSMVGSCCTSASPTVCFLKERLQLKHLSLLTTLSNRVCSQYAAYGEKKSRLSNLIKLAQKVPTADLEDVLPLAEDITNILSKCCESASEDCMAKELPEHTVKLCDNLSTKNSKFEDCCQEKTAMDVFVCTYFMPAAQLPELPDVELPTNKDVCDPGNTKVMDKYTFELSRRTHLPEVFLSKVLEPTLKSLGECCDVEDSTTCFNAKGPLLKKELSSFIDKGQELCADYSENTFTEYKKKLAERLKAKLPDATPTELAKLVNKHSDFASNCCSINSPPLYCDSEIDAELKNIL

Tested on: heat-resistant proteins of human plasma
Experiment: LC/MS of heat-resistant proteins in plasma after exposure to proteinase K and boiling

Molecule | N-plasma + pK (LC/MS, healthy human blood plasma after incubation for 30 minutes with Proteinase K, following heating for 100° C. for 5 minutes (probe_2)) | N-plasma + pk (LC/MS, control plasma with added proteinase K, heated at 100° C. for 5 minutes) | Effect (N-plasma + pk vs N-plasma) (change on adding proteinase K to normal plasma)
B1 | 23 | – | –
B2 | – | 32 | ↑
